This test deals with TASOR-AGH (TASOR endogenously tagged at the C terminus with AID-GFP-HAx3) (mouse (endogenous in R1 mESCs)) (UniProt Q69ZR9). Briefly: co-IP; HA IP of TASOR-AGH from mESC lysate (GG lysis buffer: 10 mM HEPES, 2 mM MgCl2, 10 mM KCl, 0.5% NP-40, 0.5 mM EDTA, 150 mM NaCl; 4 h at 4C), western blot; with RNaseA at 2 ng/uL during the IP; TASOR with MPP8 also in WDR82 KO cells. A general note: Immunoblotting shows a protein as a band on a membrane.

By UniProt entry, the sequences of proteins in these tests, tags left out.
UniProt Q69ZR9: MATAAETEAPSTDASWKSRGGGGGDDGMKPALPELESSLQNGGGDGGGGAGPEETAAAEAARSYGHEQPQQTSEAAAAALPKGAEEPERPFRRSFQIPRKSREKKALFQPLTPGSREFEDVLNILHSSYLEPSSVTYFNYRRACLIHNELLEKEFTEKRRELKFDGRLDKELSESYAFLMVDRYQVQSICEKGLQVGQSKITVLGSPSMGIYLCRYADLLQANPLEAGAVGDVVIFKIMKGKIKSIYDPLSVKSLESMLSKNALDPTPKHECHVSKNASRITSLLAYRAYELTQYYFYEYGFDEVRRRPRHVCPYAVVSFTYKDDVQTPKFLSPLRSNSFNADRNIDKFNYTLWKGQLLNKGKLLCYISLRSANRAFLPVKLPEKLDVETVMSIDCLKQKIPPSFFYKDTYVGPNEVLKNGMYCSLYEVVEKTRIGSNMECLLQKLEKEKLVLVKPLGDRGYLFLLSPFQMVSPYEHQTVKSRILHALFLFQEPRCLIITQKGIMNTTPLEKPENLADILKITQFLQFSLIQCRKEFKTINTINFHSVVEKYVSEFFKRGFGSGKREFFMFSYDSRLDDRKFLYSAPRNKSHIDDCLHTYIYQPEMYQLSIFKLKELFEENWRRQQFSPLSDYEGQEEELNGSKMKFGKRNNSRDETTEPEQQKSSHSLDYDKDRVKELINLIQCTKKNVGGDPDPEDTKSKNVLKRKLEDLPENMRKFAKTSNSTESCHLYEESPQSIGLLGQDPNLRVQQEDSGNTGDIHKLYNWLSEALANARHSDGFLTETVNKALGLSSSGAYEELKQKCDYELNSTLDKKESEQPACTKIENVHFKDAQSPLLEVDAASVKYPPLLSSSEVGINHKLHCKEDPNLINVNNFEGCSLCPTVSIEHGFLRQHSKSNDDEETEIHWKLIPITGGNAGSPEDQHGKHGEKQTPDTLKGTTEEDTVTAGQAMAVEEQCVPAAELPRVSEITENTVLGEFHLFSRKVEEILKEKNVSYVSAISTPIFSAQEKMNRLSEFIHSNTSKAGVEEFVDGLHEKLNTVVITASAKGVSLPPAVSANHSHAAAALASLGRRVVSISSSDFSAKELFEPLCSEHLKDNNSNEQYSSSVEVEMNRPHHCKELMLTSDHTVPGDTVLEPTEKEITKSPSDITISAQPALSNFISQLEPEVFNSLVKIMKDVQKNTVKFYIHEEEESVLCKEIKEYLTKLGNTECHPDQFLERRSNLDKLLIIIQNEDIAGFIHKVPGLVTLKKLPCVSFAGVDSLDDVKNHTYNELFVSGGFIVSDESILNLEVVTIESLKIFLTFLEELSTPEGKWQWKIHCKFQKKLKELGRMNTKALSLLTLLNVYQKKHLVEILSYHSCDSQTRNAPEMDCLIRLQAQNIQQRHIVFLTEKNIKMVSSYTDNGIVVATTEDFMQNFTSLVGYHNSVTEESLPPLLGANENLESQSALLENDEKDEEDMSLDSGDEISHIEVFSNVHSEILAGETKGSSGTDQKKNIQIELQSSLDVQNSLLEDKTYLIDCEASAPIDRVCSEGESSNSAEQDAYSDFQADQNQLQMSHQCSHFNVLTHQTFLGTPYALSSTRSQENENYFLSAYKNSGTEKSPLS
UniProt Q8BFQ4: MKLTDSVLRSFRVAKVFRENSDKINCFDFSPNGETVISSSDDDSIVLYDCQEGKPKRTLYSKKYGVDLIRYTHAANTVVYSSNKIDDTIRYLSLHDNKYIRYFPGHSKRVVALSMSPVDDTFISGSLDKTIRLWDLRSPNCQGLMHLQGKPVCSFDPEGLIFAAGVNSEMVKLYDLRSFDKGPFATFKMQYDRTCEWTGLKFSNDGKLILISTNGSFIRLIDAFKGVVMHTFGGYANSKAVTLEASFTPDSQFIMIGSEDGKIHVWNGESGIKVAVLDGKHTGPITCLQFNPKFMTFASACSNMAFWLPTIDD

No constants are given. Whether binding was seen depends on the method and setting. Binding seen in cells or lysates may run through a third protein. Some entries that bind do so weakly or less than the wild type.

Consider WDR82 (from UniProt Q8BFQ4 1-313), for which the binding result was “binds”.

B1: MPP8 (protein, UniProt Q3TYA6 1-858)
chain: MAAAAEEGMSAAALVMSVPDSIGRSPESEGVGAGDEEKDAATKGTVAVGDSEEDGEDVFEVERILDMKCEGGKNLYKVRWKGYTSEDDTWEPEVHLEDCKEVLLEFRKKLAENKAKAVRKDIQRLSLNNDIFEADSDSDQQSDTKEDISPRKKKKKIKCKEETSPEDLRKKRTKMGKLKDKFKTELESTSEIIGFDVKTKKRIWEVKEELKDSKKPKKDEIKETKELKKANKRAEVRDLKIKIREDVKENRKTKKERYIESPLESESPNDSLILEDDSEDFISDNREENQNVRSVRDKTAQETVQEGIFEKHLDDLISIEEDAGTRVRRKKTKPRKFEEPKEIKKLESTNAFLERRAIPKKQRNQDKGISNLELNKLPSPVFAQTLKSSRLSGEEKSLKSPDLAEEEKEKKNEPKGKYQKRYDLDKEEKARKEPKVLKSFKEIRNAFDLFKKTTEEKNDVLENNSKREEISLDSKIMNDNKTKDKCSLKEKRNTRDETDTWAYIAAEGDQEVSDSVCQTDETSDGRQPVLSLGMDLQLEWMKLEDFQKHLDGEDEPFITTNRIPNNLLRDAVKNGDYIAVKVALNSNEEYNLDQEDSTGMTLVMLAAAGGQDDLLRLLITKGAKVNGRQKNGTTALIHAAEKNFLTTVAILLEAGAFVNVQQSNGETALMKACKRGNSDIVRLVIECGADCNILSKHQNSALYFAKQCNNVLVYELLKSHLETLSRVAEETIRDYFESRLALLEPVFPIACHRLCEGPDFSTDFNYMPPQNMPEGSGVLLFIFHANFLGKDVIARLCGPCSVQAVVLNDKFQLPVFLDSHFVYSFSPVAGPNKLFIRLTEAPFAKVKLLIGAYRVQLQ
As for B1, the binding entry is given as “binds”.
